Laboratory results published in US20240319173A1, “REAGENTS AND METHODS FOR PROMOTING ARTERIAL ENDOTHELIUM DIFFERENTIATION AND NITRIC OXIDE PRODUCTION” (Wisconsin Alumni Research Foundation, priority 2023, published 2024).
Some of these results come from one statement about several compounds together.

Tested on: NOS3-NLuc-2A-tdTomato hPSCs
Assay: Arterial endothelial cell (AEC) differentiation, flow cytometry for CD144+ DLL4+ cells
Type: cell-based, human
Details: compound added from day 2 to day 6 of differentiation; dose-dependent (FIG. 3A)
Excerpt: FIG. 3A is a bar graph showing arterial endothelial cell differentiation in response to treatment on days 2 through 6 of different concentrations of compounds identified in compound screening assays. Differentiated arterial endothelial cells were identified by flow cytometry for CD144+ DLL4+ cells after 6 days of treatment.
FIG. 3B is a bar graph showing arterial endothelial cell differentiation in response to three specific compounds at day 3-6 of differentiation.
NOS3-NLuc-Tom human pluripotent stem cells (hPSCs), prepared as set forth above, were cultured in E8BAC medium for two days (day 0-2) to induce mesoderm formation. On days 2-5 cells received Five Factor medium daily, and AEC collected on day 6. More than 90% of the resulting cells were CD144^+CXCR4^+DLL4^+, consistent with differentiation to AEC cells.
C21-C33 compounds were further tested to confirm their effects. […] Thus, the effects of C21, C22, and C24-C31 on AEC differentiation from NOS3-NLuc-2A-tdTomato hPSCs were measured.

Hordenine sulfate [C29]
percentage of AEC on day 6 compared to control treatment: except
